From PubChem BioAssay AID504467 (National Center for Advancing Translational Sciences (NCATS), 2011)
Among all 330,000 compounds or so, about 7,700 (2.3%) were called active. Inconclusive means that the source gave no clear call. Such entries were picked first, then a sample of the others. Calls come from the whole dose curve; as a rule, active = well fitted inhibition curve with a large enough effect; inconclusive = small, poorly fitted or top-dose-only effect, or effect the other way; inactive = flat fitted curve, though single readings scatter. Potencies beside an inconclusive call are fits to weak or partial responses and may not hold up.

Experiment: qHTS screen for small molecules that inhibit ELG1-dependent DNA repair in human embryonic kidney (HEK293T) cells expressing luciferase-tagged ELG1; note: nearly all actives have a fitted effect of over 55% in size
Details: HEK293T ELG1-luciferase reporter, luminescence, 16 h, DNA damage induced by 5-fluorouridine; activity change, negative = inhibition: at 46.1 µM (top of the series)
Outline: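 Reporter activity after DNA damage by 5-fluorouridine is monitored. Compound-treated cells incubate 16 hr at 37 °C, then ONE-Glo is added for 30 min before luminescence reading.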
% is set by controls: 0 for no effect and ±100 for the full control effect; potency is the fitted concentration of half-maximal effect.

Compound	Potency	activity change, negative = inhibition
O=C1N(c2ccccc2)C[C@@H]2C[C@@H](c3cccs3)N3CCC[C@@]123	inconclusive: 14.6 µM [inhibitor, partial curve]	–
CNc1nnc(SCC(=O)c2cc(C)n(C3CC3)c2C)s1	inconclusive: 18.3 µM [activator, partial curve]	–
CCOC(=O)Nc1ccc(C(=O)/C=C/c2ccccc2)cc1	inconclusive: 18.3 µM [activator, single point]	–
COC(=O)C(O)(CC(=O)Nc1cc(OC)c(OC)c(OC)c1)C(F)(F)F (configuration not stated)	inconclusive: 25.9 µM [activator, partial curve, poor fit]	–
O=C(Nc1ccc2nc3n(c(=O)c2c1)CCCCC3)c1ccccc1[N+](=O)[O-]	inconclusive: 9.2 µM [activator, partial curve]	–
CC(C)c1onc(C(=O)N2CCCCC2C)c1[N+](=O)[O-] (configuration not stated)	–	inactive: -1.69%
O=C(c1ccco1)N1CCN(C(=O)C2c3ccccc3Oc3ccccc32)CC1	inconclusive: 29.1 µM [activator, single point]	–
COC(=O)c1ccc(OCC(=O)c2cccc(OC)c2)cc1	inconclusive: 13 µM [activator, partial curve]	–
Cc1occc1C(=O)N/N=C/c1ccccc1[N+](=O)[O-]	inconclusive: 18.3 µM [activator, partial curve]	–
O=C(CSc1nnc(CNC(=O)c2ccccc2F)o1)c1ccc(Cl)cc1	inconclusive: 25.9 µM [inhibitor, partial curve, poor fit]	–
O=C1Nc2ccccc2C1Cc1ccccn1 (configuration not stated)	inconclusive: 32.6 µM [activator, partial curve, poor fit]	–
Cc1ccccc1OCC(=O)Nc1ccc(NC(=O)c2ccco2)cc1	–	inactive: 2.12%
CSc1nnc2c(n1)c(C)nn2-c1cccc(C)c1	inconclusive: 16.4 µM [activator, single point]	–
Oc1ccccc1/C=N/N1CCCCC1	inconclusive: 23.1 µM [activator, partial curve, poor fit]	–
Cc1cc(C)n(CCN(C)Cc2nc(Cc3ccccc3F)no2)n1	inconclusive: 11.6 µM [activator, partial curve]	–
COc1cc(/C=C/C(=O)OC[C@H]2O[C@H](OC3(CO)OC(CO)C(O)C3O)[C@H](O)[C@@H](O)[C@@H]2O)ccc1O (some centres not stated)	inconclusive: 16.4 µM [activator, partial curve, poor fit]	–
CC(C)CN=CC1=C(O)c2ccccc2C1=O	inconclusive: 7.3 µM [activator, partial curve]	–
COC(=O)c1c(F)c(F)c(NCCO)c(F)c1F	inconclusive: 32.6 µM [activator, single point]	–
CNC(=S)N/N=C/c1ccc(N2CCOCC2)s1	inconclusive: 2.31 µM [inhibitor, partial curve, poor fit]	–
CCOc1ccc(N=CC2=C(O)CC(C)(C)CC2=O)cc1	inconclusive: 18.4 µM [activator, single point]	–
CC(C)Cn1c(Cc2ccccc2)n[nH]c1=S	inconclusive: 22.4 µM [inhibitor, single point]	–
CCOc1ccc(N(C(=O)c2ccc3c(c2)OCO3)C2C=CS(=O)(=O)C2)cc1 (configuration not stated)	–	inactive: 4.07%
COc1cc(OC)nc(NC(=O)COC(=O)c2cccc(Cl)c2)n1	–	inactive: 7.93%

Compound	Potency	activity change, negative = inhibition
O=C(c1cccc(S(=O)(=O)N2CCOCC2)c1)N(Cc1nnc(-c2ccccc2Cl)o1)C1CC1	inconclusive: 29.1 µM [inhibitor, single point]	–
COc1ccc(NC(=O)c2nn(C)c(=O)c3ccccc23)cc1S(=O)(=O)Nc1ccccc1Cl	–	inactive: 4.44%
NC(=O)COC(=O)c1ccc(S(=O)(=O)NCc2ccco2)cc1	–	inactive: 14.6%
CC(=O)Nc1ccc(Nc2nc(-c3sc(C)nc3C)cs2)cc1	inconclusive: 22.4 µM [inhibitor, partial curve, poor fit]	–
CN1CCN(c2ccccc2NC(=O)c2ccc(-c3cccc([N+](=O)[O-])c3)o2)CC1	inconclusive: 16.4 µM [inhibitor, single point]	–
Cc1cc(C)nc(NS(=O)(=O)c2ccc(N/C=C/C(=O)c3ccc(Cl)cc3)cc2)n1	inconclusive: 20.6 µM [activator, single point]	–
COC(=O)[C@]1(Cc2ccccc2)N[C@H](c2ccc(-c3cc(C(C)=O)cs3)cc2)[C@@H]2C(=O)N(C)C(=O)[C@@H]21	–	inactive: 7.55%
CCOC(=O)/C(C#N)=C/c1cc2cc(C)c(C)cc2nc1Cl	inconclusive: 18.3 µM [activator, partial curve]	–
COc1ccc(CN(C)CC(=O)Nc2cc3oc4ccccc4c3cc2OC)c(OC)c1	inconclusive: 29.1 µM [inhibitor, single point]	–
CC1CCN(c2ccc(/C=C(\C#N)c3nn(-c4ccccc4)c(N)c3C#N)cc2[N+](=O)[O-])CC1	inconclusive: 23.1 µM [inhibitor, partial curve, poor fit]	–
O=C1N(Cc2cccc(Cl)c2)C[C@@H]2C[C@@H](c3ccc4nonc4c3)N3CCC[C@@]123	inconclusive: 29.1 µM [inhibitor, single point]	–
C/C(CC(=O)Nc1cc(C)ccn1)=N\NC(=O)COc1cccc(C)c1	inconclusive: 18.4 µM [activator, single point]	–
O=C(/C=C/c1ccc(Cl)cc1Cl)NCc1ccncc1	inconclusive: 1.03 µM [inhibitor, single point]	–
Cc1ccc(CN(C)C(=O)CCNS(=O)(=O)c2ccccc2)o1	–	inactive: 29.1%
COc1ccc(-c2csc(NC(=O)c3ccccc3F)n2)cc1	inconclusive: 22.4 µM [activator, single point]	–
Cc1ccc(-n2nc3c(=O)n(C(C)C(=O)NCCc4cccs4)nc(C)c3c2C)cc1 (configuration not stated)	inconclusive: 0.82 µM [inhibitor, partial curve, poor fit]	–
COc1ccc(Br)cc1[C@H]1[C@@H]2C=CCC[C@@]2(C)C(=O)N1Cc1ccccc1	inconclusive: 29.1 µM [inhibitor, single point]	–
Cc1ccc(OCc2ccc(C(=O)N3CCOCC3)cc2)cc1C	inconclusive: 1.03 µM [activator, partial curve]	–
NS(=O)(=O)c1ccc(CNC(=O)c2cc(-c3ccccc3)nc3ccccc23)cc1	–	inactive: -6.6%
Cc1ccc(S(=O)(=O)NCc2ccc(C(=O)N3CCN(c4ccccn4)CC3)cc2)cc1	inconclusive: 18.4 µM [inhibitor, single point]	–
O=Cc1cn(-c2ccccc2)nc1-c1cc2c(ccc3ccccc32)oc1=O	–	inactive: 19.4%
CN(C)c1oc(-c2ccccc2Cl)nc1S(=O)(=O)c1ccccc1	inconclusive: 29.1 µM [inhibitor, single point]	–
Cc1ccc(S(=O)(=O)/C(C#N)=C/c2c(N3CC(C)OC(C)C3)nc3c(C)cccn3c2=O)cc1 (configuration not stated)	inconclusive: 25.9 µM [inhibitor, partial curve, poor fit]	–

Record cards (already shown). Values in the order: Potency | activity change, negative = inhibition
`C/C(CC(=O)Nc1cc(C)ccn1)=N\NC(=O)COc1cccc(C)c1` in the list: inconclusive: 18.4 µM [activator, single point] | –
`CC(=O)Nc1ccc(Nc2nc(-c3sc(C)nc3C)cs2)cc1` in the list: inconclusive: 22.4 µM [inhibitor, partial curve, poor fit] | –
`Cc1ccc(S(=O)(=O)/C(C#N)=C/c2c(N3CC(C)OC(C)C3)nc3c(C)cccn3c2=O)cc1` (configuration not stated) in the list: inconclusive: 25.9 µM [inhibitor, partial curve, poor fit] | –
`O=C(/C=C/c1ccc(Cl)cc1Cl)NCc1ccncc1` in the list: inconclusive: 1.03 µM [inhibitor, single point] | –

Next entries follow.

Compound	Potency	activity change, negative = inhibition
O=C(COc1cccc(Oc2ccccc2)c1)Nc1ccc(SC(F)F)cc1	inconclusive: 23.1 µM [inhibitor, single point]	–
C/C(=N\NC(=O)OC(C)(C)C)c1ccc[nH]1	inconclusive: 13 µM [activator, partial curve]	–
CSc1c(-c2ccccn2)c(N)nn1C(=O)C1CC1	–	inactive: 0.647%
Cc1ccc(-c2nc(-c3ccncc3)no2)cc1Cl	inconclusive: 2.91 µM [activator, full curve]	–
O=C(Cc1ccc(-c2ccccc2)cc1)NCc1cccnc1	–	inactive: -15.2%
CCCCOc1ccc(C2CCC(C(C)=O)C(C)C2)cc1 (configuration not stated)	inconclusive: 10.3 µM [activator, partial curve]	–
COc1ccccc1C(=O)NCC(=O)NNc1ncnc(N)c1[N+](=O)[O-]	inconclusive: 29.1 µM [activator, single point]	–
CC1=C/C(=C(\c2ccc(O)c(C)c2)c2ccccc2S(=O)(=O)O)C=CC1=O	–	inactive: 8.7%
Cn1c(SCC(=O)NC2CCS(=O)(=O)C2)nnc1-c1ccco1 (configuration not stated)	inconclusive: 0.058 µM [inhibitor, partial curve, poor fit]	–
Cc1cccc(C)c1NC(=O)COC(=O)CCc1ccc(S(=O)(=O)N2CCCCC2)cc1	inconclusive: 32.6 µM [activator, partial curve, poor fit]	–
COc1ccc(N2C(=O)c3ccccc3C2=O)cc1	–	inactive: 12.7%
O=C(O)c1cc(-c2ccco2)[nH]n1	–	inactive: -0.396%
COc1ccc(S(=O)(=O)Cc2ccccc2)cc1N	–	inactive: 4.54%
Cc1nnc(C)n1/N=C/C=C/c1ccccc1	inconclusive: 20.6 µM [activator, single point]	–
CCCN(CCC)C(=O)Cn1c(=O)n(CCCCCC(=O)Nc2ccccc2)c(=O)c2sccc21	–	inactive: -3.62%
CN(CC(=O)Nc1ccccc1Cl)C(=O)c1ccc(Cl)c(S(=O)(=O)N2CCCCCC2)c1	inconclusive: 20.6 µM [inhibitor, single point]	–
O=c1oc2ccccc2n1CSc1nc2ccccc2s1	inconclusive: 14.1 µM [activator, partial curve]	–
CC(C)CCNC(=O)COc1ccc2c(c1)C(=O)CC(C)(C)O2	inconclusive: 13 µM [activator, partial curve, poor fit]	–
COc1ccc(C(C)=O)cc1COC(=O)c1ccc(OCc2c(C)noc2C)cc1	–	inactive: 19%
COC(CNC(=O)c1cccc2c1C(=O)N(Cc1cccnc1)C2)OC	inconclusive: 13 µM [activator, partial curve]	–
O=c1c2c3nc4ccccc4nc3n(/N=C/c3cccs3)c2ncn1-c1ccccc1	inconclusive: 23.1 µM [inhibitor, partial curve, poor fit]	–
